Measurements published in patent US4121009A, “Anti-static fabric softening compositions and processes for drying and softening textiles therewith” (priority 1976, dated 1978).

Legend:
[1] = Soil release of padded dacron-cotton permanent press swatches (Examples 44-52); conditions: 1-worst, 4-best
[2] = Softness of padded terry cotton swatches, paired comparison by panel of 10 judges (Example 28); conditions: about 0.1% active add-on
[3] = Rusting or rust inhibitory properties by VCS color (Example 60); conditions: 1% solids in water; for VCS Color, Final (B): 96 hours exposure to coupons; for Extent of Rusting (B-A): 96 hours, VCS color difference

## CCCCCCCCCCCCCCCCCC[N+](C)(C)CCCCCCCCCCCCCCCCCC.[Cl-] [Distearyl dimethyl ammonium chloride, dimethyldistearylammonium chloride]
[1]; W-P-S-W
  Soil Release Score, MO (Mineral Oil): 1
  Soil Release Score, VO (Vegetable Oil): 1
[1]; W-P-W-S-W
  Soil Release Score, MO (Mineral Oil): 1
  Soil Release Score, VO (Vegetable Oil): 1
[2]
  softness versus untreated control swatches: much superior to the softness of untreated control swatches
[3]
  VCS Color, Initial (A): 3.0
  VCS Color, Final (B): 7.0
  Extent of Rusting (B-A): 4.0

## CCCCCCCCCCCCCCCCCC[N+](C)(C)CCCCCCCCCCCCCCCCCC [Dimethyl distearyl ammonium methosulfate, dimethyl distearylammonium methosulfate]
[3]
  VCS Color, Initial (A): 3.0
  VCS Color, Final (B): 6.5
  Extent of Rusting (B-A): 3.5
